No constants are given. Whether binding was seen depends on the method and setting. In cells and extracts the contact can be indirect. Here binding means that the protein was enriched with, or labelled near, the bait; the list need not be complete. Tags and fused reporters may be left off the sequences shown.
T1: WASH1-BioID2-HA (UniProt Q8VDD8)
T1 sequence: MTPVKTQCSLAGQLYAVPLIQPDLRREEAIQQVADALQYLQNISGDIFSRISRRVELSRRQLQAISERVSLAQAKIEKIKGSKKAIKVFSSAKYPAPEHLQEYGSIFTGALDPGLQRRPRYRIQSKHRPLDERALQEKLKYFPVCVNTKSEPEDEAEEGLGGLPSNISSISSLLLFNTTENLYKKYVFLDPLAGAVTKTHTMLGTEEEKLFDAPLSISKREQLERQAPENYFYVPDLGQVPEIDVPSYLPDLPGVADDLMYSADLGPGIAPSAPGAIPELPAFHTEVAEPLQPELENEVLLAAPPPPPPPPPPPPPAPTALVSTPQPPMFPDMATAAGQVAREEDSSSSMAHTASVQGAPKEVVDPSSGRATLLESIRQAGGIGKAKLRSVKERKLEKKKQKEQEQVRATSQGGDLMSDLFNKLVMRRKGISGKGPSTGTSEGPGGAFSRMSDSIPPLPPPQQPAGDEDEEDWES

Chains of the proteins cited; added tags and fusions are not shown. Residues count along the entry.
UniProt Q8BWQ6: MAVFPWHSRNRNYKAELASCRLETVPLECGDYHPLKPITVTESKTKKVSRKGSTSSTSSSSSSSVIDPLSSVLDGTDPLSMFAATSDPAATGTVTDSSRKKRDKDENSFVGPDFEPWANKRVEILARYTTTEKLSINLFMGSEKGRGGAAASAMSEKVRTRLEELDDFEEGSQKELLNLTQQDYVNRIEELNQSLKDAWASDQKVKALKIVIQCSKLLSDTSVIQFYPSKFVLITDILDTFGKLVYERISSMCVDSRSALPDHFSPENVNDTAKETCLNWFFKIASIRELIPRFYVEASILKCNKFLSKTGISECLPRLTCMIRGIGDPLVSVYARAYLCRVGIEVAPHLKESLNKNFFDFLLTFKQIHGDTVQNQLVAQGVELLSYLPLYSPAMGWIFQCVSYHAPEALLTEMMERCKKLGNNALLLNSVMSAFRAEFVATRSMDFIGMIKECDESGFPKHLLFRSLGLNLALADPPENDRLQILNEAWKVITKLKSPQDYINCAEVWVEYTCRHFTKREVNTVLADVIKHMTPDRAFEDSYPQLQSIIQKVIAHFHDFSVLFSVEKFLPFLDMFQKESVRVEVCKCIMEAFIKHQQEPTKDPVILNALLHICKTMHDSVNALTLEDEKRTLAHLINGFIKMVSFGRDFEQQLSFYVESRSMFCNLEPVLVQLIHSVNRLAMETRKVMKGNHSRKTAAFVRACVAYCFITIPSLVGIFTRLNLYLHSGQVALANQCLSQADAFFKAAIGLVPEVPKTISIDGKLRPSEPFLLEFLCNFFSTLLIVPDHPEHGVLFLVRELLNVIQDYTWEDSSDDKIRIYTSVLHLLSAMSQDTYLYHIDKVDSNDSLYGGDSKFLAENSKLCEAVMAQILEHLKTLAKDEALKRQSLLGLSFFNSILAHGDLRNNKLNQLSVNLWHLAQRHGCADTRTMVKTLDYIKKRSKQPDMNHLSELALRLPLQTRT
UniProt Q7TQK5: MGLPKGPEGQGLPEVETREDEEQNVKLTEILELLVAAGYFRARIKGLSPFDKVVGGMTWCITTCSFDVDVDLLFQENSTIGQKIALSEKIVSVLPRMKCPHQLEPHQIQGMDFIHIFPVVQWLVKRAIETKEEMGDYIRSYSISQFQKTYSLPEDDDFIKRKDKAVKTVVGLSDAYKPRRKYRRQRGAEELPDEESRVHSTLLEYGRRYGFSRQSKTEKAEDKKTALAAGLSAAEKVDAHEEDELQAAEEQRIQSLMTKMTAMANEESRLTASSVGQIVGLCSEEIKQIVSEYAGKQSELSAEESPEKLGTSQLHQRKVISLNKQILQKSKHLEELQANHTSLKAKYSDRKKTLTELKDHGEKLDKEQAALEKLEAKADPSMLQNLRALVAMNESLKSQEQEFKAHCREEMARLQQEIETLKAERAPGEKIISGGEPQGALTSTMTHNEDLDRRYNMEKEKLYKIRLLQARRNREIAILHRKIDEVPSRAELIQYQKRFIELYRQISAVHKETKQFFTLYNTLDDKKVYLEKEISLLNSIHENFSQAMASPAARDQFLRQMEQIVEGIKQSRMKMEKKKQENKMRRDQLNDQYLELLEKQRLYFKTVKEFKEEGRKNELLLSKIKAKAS
UniProt Q3UH99, residues 31-525: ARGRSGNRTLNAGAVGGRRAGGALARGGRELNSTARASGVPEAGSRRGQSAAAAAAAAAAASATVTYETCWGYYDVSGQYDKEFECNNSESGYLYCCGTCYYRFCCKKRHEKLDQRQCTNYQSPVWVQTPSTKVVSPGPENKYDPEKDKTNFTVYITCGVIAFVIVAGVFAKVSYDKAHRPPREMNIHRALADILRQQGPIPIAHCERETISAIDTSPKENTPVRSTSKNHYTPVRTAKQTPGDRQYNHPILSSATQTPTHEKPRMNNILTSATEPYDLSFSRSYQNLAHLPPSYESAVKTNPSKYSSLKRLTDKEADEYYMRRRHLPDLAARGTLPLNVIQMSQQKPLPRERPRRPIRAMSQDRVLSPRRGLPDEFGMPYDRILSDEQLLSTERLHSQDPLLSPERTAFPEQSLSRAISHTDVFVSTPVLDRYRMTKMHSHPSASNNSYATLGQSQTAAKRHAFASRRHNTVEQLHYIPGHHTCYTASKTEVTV
UniProt Q8K2Q0: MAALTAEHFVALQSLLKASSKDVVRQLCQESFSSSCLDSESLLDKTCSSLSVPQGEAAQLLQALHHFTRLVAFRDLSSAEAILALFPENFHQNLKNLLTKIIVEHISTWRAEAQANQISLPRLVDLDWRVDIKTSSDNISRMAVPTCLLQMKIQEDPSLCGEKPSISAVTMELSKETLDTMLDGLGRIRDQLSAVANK
UniProt Q4ACU6: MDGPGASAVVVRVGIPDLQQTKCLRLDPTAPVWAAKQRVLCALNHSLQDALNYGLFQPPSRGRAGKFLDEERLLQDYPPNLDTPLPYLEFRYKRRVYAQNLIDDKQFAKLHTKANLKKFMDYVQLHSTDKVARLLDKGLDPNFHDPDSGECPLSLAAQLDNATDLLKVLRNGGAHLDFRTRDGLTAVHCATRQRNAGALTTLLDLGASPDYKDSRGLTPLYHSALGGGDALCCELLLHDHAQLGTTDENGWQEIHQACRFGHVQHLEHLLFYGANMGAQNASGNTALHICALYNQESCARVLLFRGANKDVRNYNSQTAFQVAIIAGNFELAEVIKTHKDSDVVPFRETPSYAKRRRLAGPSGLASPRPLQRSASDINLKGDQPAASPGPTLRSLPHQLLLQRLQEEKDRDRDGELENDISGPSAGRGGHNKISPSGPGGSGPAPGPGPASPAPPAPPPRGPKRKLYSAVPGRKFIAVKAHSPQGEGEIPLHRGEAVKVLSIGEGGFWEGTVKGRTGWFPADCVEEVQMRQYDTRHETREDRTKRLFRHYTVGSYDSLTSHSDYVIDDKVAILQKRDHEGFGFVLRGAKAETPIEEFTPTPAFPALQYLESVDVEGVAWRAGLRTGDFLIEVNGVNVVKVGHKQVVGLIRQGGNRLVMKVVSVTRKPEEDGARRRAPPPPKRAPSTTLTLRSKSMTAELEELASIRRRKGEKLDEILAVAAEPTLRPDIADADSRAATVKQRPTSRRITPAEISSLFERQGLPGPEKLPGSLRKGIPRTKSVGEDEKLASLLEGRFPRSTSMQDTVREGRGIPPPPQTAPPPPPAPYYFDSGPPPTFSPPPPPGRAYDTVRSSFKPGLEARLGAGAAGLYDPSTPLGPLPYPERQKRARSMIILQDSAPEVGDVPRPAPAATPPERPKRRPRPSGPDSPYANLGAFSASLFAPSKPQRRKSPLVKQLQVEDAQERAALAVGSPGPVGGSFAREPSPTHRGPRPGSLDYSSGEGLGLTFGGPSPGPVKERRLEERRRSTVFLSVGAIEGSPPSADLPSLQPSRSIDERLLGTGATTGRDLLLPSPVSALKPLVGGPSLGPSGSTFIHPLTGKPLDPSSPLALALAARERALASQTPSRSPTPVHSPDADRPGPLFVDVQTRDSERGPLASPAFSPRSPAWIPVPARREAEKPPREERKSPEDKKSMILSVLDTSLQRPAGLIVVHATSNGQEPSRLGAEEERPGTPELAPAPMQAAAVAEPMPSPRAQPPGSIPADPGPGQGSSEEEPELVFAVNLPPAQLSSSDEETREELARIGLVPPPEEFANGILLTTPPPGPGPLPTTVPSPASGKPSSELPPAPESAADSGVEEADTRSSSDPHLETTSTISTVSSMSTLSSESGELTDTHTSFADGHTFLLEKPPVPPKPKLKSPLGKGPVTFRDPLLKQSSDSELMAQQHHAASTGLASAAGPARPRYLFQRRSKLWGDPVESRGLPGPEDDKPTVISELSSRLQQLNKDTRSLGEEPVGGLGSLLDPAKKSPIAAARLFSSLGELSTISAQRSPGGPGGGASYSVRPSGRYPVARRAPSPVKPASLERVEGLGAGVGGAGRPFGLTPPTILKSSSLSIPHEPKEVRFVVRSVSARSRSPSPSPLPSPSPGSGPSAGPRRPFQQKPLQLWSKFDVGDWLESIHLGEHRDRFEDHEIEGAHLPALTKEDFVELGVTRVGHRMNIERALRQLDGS

B1: WASHC2 (FAM21) (protein, UniProt Q6PGL7 1-1334)
chain: MNRTSPDSERPPASEPVWERPWSVEEIRRSSQNWSLAADAGLLQFLQEFSQQTISRTHEIKKQVDGLIQETKATHCRLHNVFNDFLMLSNTQFIENRVYDEEVEEQVLKAEAEKAEQEKTREQKEIDLIPKVQEAVNYGLQVLDSAFEQLDIKAGNSDSEEDDANERVDLILEPKDLYIDRPLPYLIGSKLFMEQEDVGLGELSSEEGSVGSDRGSIVDSEDEKEEEESDEDFASHSDNDQNQHTTQISDEEEDDDGDLFADSEKEGDDIEDIEESAKSKRPTSFADELAARIKGDISNQRKEGQTDGKPQKTVKEKKERRTPADDEEDILFPPPTLTDEDFSPFGSRGGLFSNGQGLFDDEDESDLFKEAPRARPAQAPVSEELPPSPKPGKKIPAGAVSVLLGHPDVSGSTSAPSLKELQKHGQPTPGKSSHLPTPAGLFDDDDNDNDEDDNNFFMPSSSKPSKTDKVKSTAIIFDDDEGDLFKEKAEALPAASVSQTHESKTRADKTIALPSSKNLKLVSETKTQKGLFSDEEDSEDLFSSQSSSKPKSASLPSSQPPTSVSLFGDEDEEDSLFGSAAAKKQTSSLQPQSQEKAKPSEQPSKKTSALLFSSDEEDQWNIADSHTKLASDNKSKGELWDSGATQGQEAKAVKKTNLFEDDDDDEVDLFAIAKDSQKKTQRTSLLFEDDAESGSSLFGLPPTSVPSATTKKESVPKVPLLFSDEEDSEVPSGVKPEDLKVDNARVSPEVGSADVASIAQKEGLLPASDQEAGGPSDIFSSSSPLDKGAKGRTRTVLSLFDEDEDKVEDESSTCAPQDGREKGLKTDSRPKSTGVFQDEELLFSHKLQKDNDPDVDLFAGTKKIRSSVPSGGSLFGDDEDDDLFSSAKTQPVVPEKKGTLKKDHPVSLKNQDPLDSTQGSKEKSTWKTEPAQDSSGLTPFKSREPSSRIGKIQANLAINPAALLPTVALQIPGTKPVSSELAFPSSEPGRSHILESVPTLPGSVEAGVSFDLPAQADTLHSANKSRVKVRGKRRPQTRAARRLAAQESSEAEDVTVDRGPVAQLSSSPVLPNGHQPLLQPRMASGQTSSETATAPPWEGGPVLSAADRSFFVKSRPQTGNEADLFDSGDIFPKSRGSQSVEGAGVMAGEPPSHSSGGRKEKSLAFPDLSEGSSTEDLFQSVKPRAAKNRNPFPLLEDEEDLFADPRGKKNERKPDSHQDSVSKTHDIFEDDIFATEAIKPFPKKREKGRTLEPNLFDDNIDIFADLTVKPKEKSKKKVAAKSMFDDDTDDIFSSGLQAKASKPKSQSAEAASEQRSEHKVASIFDDPLNAFGSQ
B2: SNX16 (protein, UniProt Q8C080 1-344)
chain: MATPYVPVPMPIGNSASSFTNNRNQRSSSFGSVSTSSTSSKGQLEDSAVGSLKQTNVQDQMDSASSMCGSPLIRTKFTGTDSSIEYSARPREAEEQHPEAVNWEDRPSTPTILGYEVMEERAKFTVYKILVKKSPEESWVVFRRYTDFSRLNDKLKEMFPGFRLALPPKRWFKDNYNAEFLEDRQLGLQAFLQNLVAHKDIANCLAVREFLCLDDPPGPFDSLEESRAFCETLEETNYHLQRELLEKQKEVESLKKLLGEKQLHIDALETRIRTLSLEPGASLYVSRAEGGQILRVEPSVLQVNRDVLDEESRADHKPHFNSREAGSVIAGIEVAQLAYNAEDD
B3: SHANK2 (protein, UniProt Q80Z38 1-1476)
chain: MKSLLNAFTKKEVPFREAPAYSNRRRRPPNTLAAPRVLLRSNSDNNLNAGAPEWAVCSAATSHRSLSPQLLQQTPSKPDGATKSLGSYTPGPRSRSPSLNRLGGTAEDGKRTQPHWHVGSPFTPGANKDSLSTFEYPGPRRKLYSAVPGRLFVAVKPYQPQVDGEIPLHRGDRVKVLSIGEGGFWEGSARGHIGWFPAECVEEVQCKPRDSQAETRADRSKKLFRHYTVGSYDSFDAASDCIIEDKTVVLQKKDNEGFGFVLRGAKADTPIEEFTPTPAFPALQYLESVDEGGVAWQAGLRTGDFLIEVNNENVVKVGHRQVVNMIRQGGNHLILKVVTVTRNLDPDDTARKKAPPPPKRAPTTALTLRSKSMTAELEELGLSLVDKASVRKKKDKPEEIVPASKPSRTAENVAIESRVATIKQRPTSRCFPAASDVNSVYERQGIAVMTPTVPGSPKGPFLGLPRGTMRRQKSIDSRIFLSGITEEERQFLAPPMLKFTRSLSMPDTSEDIPPPPQSVPPSPPPPSPTTYNCPRSPTPRVYGTIKPAFNQNPVVAKVPPATRSDTVATMMREKGMFYRRELDRFSLDSEDVYSRSPAPQAAFRTKRGQMPENPYSEVGKIASKAVYVPAKPARRKGVLVKQSNVEDSPEKTCSIPIPTIIVKEPSTSSSGKSSQGSSMEIDPQATEPGQLRPDDSLTVSSPFAAAIAGAVRDREKRLEARRNSPAFLSTDLGDEDVGLGPPAPRMQASKFPEEGGFGDEDETEQPLLPTPGAAPRELENHFLGGGEAGAQGEAGGPLSSTSKAKGPESGPAAPLKSSSPAGPENYVHPLTGRLLDPSSPLALALSARDRAMQESQQGHKGEAPKADLNKPLYIDTKMRPSVESGFPPVTRQNTRGPLRRQETENKYETDLGKDRRADDKKNMLINIVDTAQQKSAGLLMVHTVDVPMAGPPLEEEEDREDGDTKPDHSPSTVPEGVPKTEGALQISAAPEPAVAPGRTIVAAGSVEEAVILPFRIPPPPLASVDLDEDFLFTEPLPPPLEFANSFDIPDDRAASVPALADLVKQKKNDTSQPPTLNSSQPANSTDSKKPAGISNCLPSSFLPPPESFDAVTDSGIEEVDSRSSSDHHLETTSTISTVSSISTLSSEGGESMDTCTVYADGQAFVVDKPPVPPKPKMKPIVHKSNALYQDTLPEEDTDGFVIPPPAPPPPPGSAQAGVAKVIQPRTSKLWGDVPEVKSPILSGPKANVISELNSILQQMNRGKSVKPGEGLELPVGAKSANLAPRSPEVMSTVSGTRSTTVTFTVRPGTSQPITLQSRPPDYESRTSGPRRAPSPVVSPTELSKEILPTPPPPSATAASPSPTLSDVFSLPSQSPAGDLFGLNPAGRSRSPSPSILQQPISNKPFTTKPVHLWTKPDVADWLESLNLGEHKETFMDNEIDGSHLPNLQKEDLIDLGVTRVGHRMNIERALKQLLDR
B4: DLGAP2 (protein, UniProt Q8BJ42 1-1059)
chain: MGTAQVLPGILQKHCCILPDRNTESQCTLCGEPEEEEGGDLAQPGLSFPGPAEEDIDQQYSWSPTQHFNEERYSPAPRNMKGLTGSRNQPQLCAGHTCGLSPPDDCEHPHDHMHHGSDVRQPYLLSPAESCPMDHHRCSPRSSVHSECMMMPVMLGDHVSSSTFPRMHYSSHYDTRDDCAMSHTSTKVNRIPANLLDQFEKQLPLHRDGFHTLQYQRASAATEQRNESPGRIRHLVHSVQKLFTKSHSLEGSSKSNINGTKSDSRVDDHHQSHLSKHSKRSKSKERKPESKHKSGMSSWWSSDDNLDSDSTYRTPSVAHRHHMDHIPHCYPEALQSPFGDLSLKTSKSNNDVKCSACEGLALTPDTRYMKRSSWSTLTVSQAKEAYRKSSLNLDKPLVHPEIKPSLRPCHYLQVPQDDWGAYPTGGKEEEIPCRRMRSGSYIKAMGDEESGESDSSPKTSPTVAIRPEPLLKPIIQRPLGDHQTQSYLQAATEVPVGHSLNPSINYNSPKFRSRNQSYMRAVSTLSQASCVSQMSEAEVNGQFESVCESVFSEVESQAMDALDLPGCFRTRSHSYLRAIQAGYSQDDECIPVMTSSNMTSTIRSTAAVSYTNYKKTPPPVPPRTTSKPLISVTAQSSTESTQDAYQDSRAQRMSPWPQDSRGGLYNSMDSLDSNKAMNLALETAAAQRHAADTQSSSTRSIDKAVLASKAEELLKSRCSSIGVQDSEFPDHQPYPRSDVETATDSDTESRGLREYHSVGVQVEDEKRHGRFKRSNSVTAAVQADLELEGFPGHVSMEDKGLQFGSSFQRHSEPSTPTQYGALRTVRTQGLFSYREDYRTQVDTSTLPPPDPWLEPSLDTVETGRMSPCRRDGSWFLKLLHTETKRMEGWCKEMEREAEENDLLEDILGKIRSAVGSAQLLMSQKFQQFYWLCQQNMDPSAMPRPTSQDLAGYWDMLQLSVEDVSMKFDELHQLKLNDWKIIESPERKEERKIPPPIPKKPPKGKFPITREKSLDLPDRQRQEARRRLMAAKRAASFRQNSATERADSIEIYIPEAQTRL

What follows are molecules tested against T1, WASH1-BioID2-HA (assay: proximity labelling; in vivo BioID (iBioID): AAV hSyn1-WASH1-BioID2-HA in wild-type mouse brain, biotin 24 mg/kg for 7 days, biotinylated proteins purified on NeutrAvidin beads, label-free LC-MS/MS; enrichment over solubleBioID2 control (fold-change >=4, FDR<0.05)).
With VPS35L (from UniProt Q8BWQ6 1-963) the binding was “binds”.
With SYNGAP1 (from UniProt F6SEU4 1-1340) the binding was “binds”.
For CCDC93 (from UniProt Q7TQK5 1-629), the binding was “binds”.
In the case of SHISA6 (from UniProt Q3UH99 31-525), the binding is reported as “binds”.
In the case of COMMD9 (from UniProt Q8K2Q0 1-198), the binding is reported as “binds”.
With SHANK3 (from UniProt Q4ACU6 1-1730) the binding was “binds”.
B1 was tested, and the binding was “binds”.
With B2 the binding was “binds”.
In the case of B3, the binding is reported as “binds”.
With B4 the binding was “binds”.

From paper PMC7984842, “Genetic disruption of WASHC4 drives endo-lysosomal dysfunction and cognitive-movement impairments in mice and humans” (eLife, 2021)
